Some of the results follow.

The assay has as its target T1, OsSMF1 (Oryza sativa, UniProt Q6ZLB0 1-436).
T1 sequence: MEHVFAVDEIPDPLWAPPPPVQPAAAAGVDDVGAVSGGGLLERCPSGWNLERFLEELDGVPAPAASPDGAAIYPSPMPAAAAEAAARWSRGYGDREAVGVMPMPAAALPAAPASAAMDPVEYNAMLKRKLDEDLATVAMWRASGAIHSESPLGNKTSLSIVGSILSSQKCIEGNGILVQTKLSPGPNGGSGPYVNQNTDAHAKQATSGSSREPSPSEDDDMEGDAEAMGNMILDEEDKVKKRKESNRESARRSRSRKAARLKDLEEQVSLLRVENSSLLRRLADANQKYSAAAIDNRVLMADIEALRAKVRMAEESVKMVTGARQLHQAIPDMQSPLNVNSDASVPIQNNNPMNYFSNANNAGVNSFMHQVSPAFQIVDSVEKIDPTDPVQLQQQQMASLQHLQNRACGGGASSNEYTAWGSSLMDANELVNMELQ
The assay can be described thus: protein-binding microarray (RPBM); PBS, 2% BSA, 51.3 ng/ul salmon testes DNA, 50 uM zinc acetate, 200 nM TF, 25 C, 1 h; high values mean tight binding. To be noted: protein: recombinant; tags: N-terminal polyhistidine and DsRed monomer fusion (pET32a); chain copies: 2; label: CyDye5-dUTP incorporated in the synthesized complementary strand; 3' TTTTT single-stranded linker to array surface; dsDNA, one strand shown. In outline:
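A custom Agilent array was converted to double-stranded form by primer extension with Cy5-dUTP and blocked with 2% BSA. Protein at 200 nM in PBS with 2% BSA, salmon testes DNA and 50 µM zinc acetate was applied for 1 h at 25 °C, followed by washing. The proteins were polyhistidine–DsRed N-terminal fusions of transcription factors, expressed in E. coli BL21-CodonPlus and Ni–NTA-purified. The binding signal is per-feature fluorescence intensity (arbitrary units) from an Axon 4000B scanner.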
“ACACACGAAGGAGCTGGAAACCAAACCCACGTACGATGCTCGGAGTCACCTAGTGCAG”: the binding signal was 5490 fluorescence intensity (a.u.).
The value for “CCAATGACCCCGCAACCACATCTCCCAATGACCCCGCAACCGGAGTCACCTAGTGCAG” was 3300 fluorescence intensity (a.u.); that for “CCCTTCCTCGCGCGCACTGATGACTCAGAAACACGCACGCCGGAGTCACCTAGTGCAG” was 14200 fluorescence intensity (a.u.).
The value for “ACCCAACGACTCAGCGAACACATCACAACAGAACCCATGACGGAGTCACCTAGTGCAG” was 3340 fluorescence intensity (a.u.); that for “GTCGTGTCGTGCCGGCCCATGGGTTGTGGTAGCCGTGCCGCGGAGTCACCTAGTGCAG” was 18900 fluorescence intensity (a.u.).
As for “ATCTTCGGGGTGGGTTACACATGCACAATTAACACGCTAGCGGAGTCACCTAGTGCAG”, the binding signal was 4430 fluorescence intensity (a.u.).
Regarding “TTCGCTTTCATCCCTTCCATGCCCCACCCGTTAGGTTTCCCGGAGTCACCTAGTGCAG”, the binding signal is 20400 fluorescence intensity (a.u.).
The value for “ACTTAAGGCCTTTGGGGCTCCACGTTGAAGTCGGATGTGTCGGAGTCACCTAGTGCAG” was 4010 fluorescence intensity (a.u.).
The figure for “TCTCTACTCTGTCGTGGCATGACTTTTGTTGCTTTAATTTCGGAGTCACCTAGTGCAG” is 5380 fluorescence intensity (a.u.); for “CCAATTTAGAACCAAGCATTGAGTAGAATATAGAAAATATCGGAGTCACCTAGTGCAG” it is 25500 fluorescence intensity (a.u.).
The figure for “CAATTCATTTATCTAGTCATCATTCCATTAAATTCTGCAGCGGAGTCACCTAGTGCAG” is 4700 fluorescence intensity (a.u.).
Turning to “CTTCCTGAGTTTCCTGAACCGTGCCCTGCGATCCGTGGCGCGGAGTCACCTAGTGCAG”, the binding signal was 3140 fluorescence intensity (a.u.).
Turning to “ATCTGATTACCCTTTCTCACTAGACACGTGCCAAAACTAGCGGAGTCACCTAGTGCAG”, the binding signal was 5760 fluorescence intensity (a.u.).
As to “TGAGATAATTAACATGTACTCTAGTCACTAACTTGCAATTCGGAGTCACCTAGTGCAG”, the binding signal is 3570 fluorescence intensity (a.u.).
With “GGGTGAAGCGTCGCGCGGCGCGCCGTGGCGTGGCGTGGCGCGGAGTCACCTAGTGCAG”, the binding signal is 6090 fluorescence intensity (a.u.).
Turning to “GTTGAAAGTACAACCTTGCCAACGTGAACAAGGTAATGTCCGGAGTCACCTAGTGCAG”, the binding signal was 3490 fluorescence intensity (a.u.).
As to “TTGGTGGCCGTGGTGGACAAGGGCGCTGACCACGACAGATCGGAGTCACCTAGTGCAG”, the binding signal is 3240 fluorescence intensity (a.u.).
Turning to “GTCAGTGGCTCAGTGCCACCCGTAGTGTACTGCCACTCCGCGGAGTCACCTAGTGCAG”, the binding signal was 3370 fluorescence intensity (a.u.).
As for “CGGCGGCTATCGTGGGGATGACGAGGGTCGTAGCAGCTACCGGAGTCACCTAGTGCAG”, the binding signal is 5530 fluorescence intensity (a.u.).
The figure for “TACTCGGTCAGAATCTGTCATACTGATGTGGTCATCGAGACGGAGTCACCTAGTGCAG” is 4090 fluorescence intensity (a.u.); for “GCGTCACGTTCCTGTCGGCGGCGGCCAACGTGGCCCGCGTCGGAGTCACCTAGTGCAG” it is 15200 fluorescence intensity (a.u.).
The value for “GGGAAGACGGTGGGGCGGGGACAGAGGTAGGGGAAGGAGGCGGAGTCACCTAGTGCAG” was 4820 fluorescence intensity (a.u.).
For the sequence “TATACAGTATTCAGTCAGACTAAGTTAAACTCTTTGTCGCCGGAGTCACCTAGTGCAG”, the binding signal is 3380 fluorescence intensity (a.u.).
Take “GGAGATCTCATCAAACCATCTCGACAAAGGTCTCGCCGGTCGGAGTCACCTAGTGCAG”: the binding signal was 3230 fluorescence intensity (a.u.).
Consider “CTTACTTTGTCTGTGTAAACAATGTAGGTGAGCTGTAGCGCGGAGTCACCTAGTGCAG”, for which the binding signal is 3150 fluorescence intensity (a.u.).
With “AGGACCAGGAGAATACTGCCATTGGTGATGACTACAATGACGGAGTCACCTAGTGCAG”, the binding signal was 4250 fluorescence intensity (a.u.).
The figure for “AAGGCTCTTAGGTGCGGTGTGACAGTCCACCTGTAGAGTGCGGAGTCACCTAGTGCAG” is 3310 fluorescence intensity (a.u.); for “GCTGGGTTTTCGAGGAGGCCTGACTGGATCATACTCGACTCGGAGTCACCTAGTGCAG” it is 3250 fluorescence intensity (a.u.).
The value for “TAATAGATTTAATCATGTGCTGATGACATTATTATGATTCCGGAGTCACCTAGTGCAG” was 4280 fluorescence intensity (a.u.); that for “CATATATATCTGACTAAAACGGTATATGTTGCACGTAGTGCGGAGTCACCTAGTGCAG” was 3360 fluorescence intensity (a.u.); that for “CGTTCCACCGCCGCGCCTCTTCCCCGCCCCGATCGGCTGCCGGAGTCACCTAGTGCAG” was 3660 fluorescence intensity (a.u.).
The value for “TAGGAGTAACAAGCTAGAGCAAATGATTGCATCACATTGACGGAGTCACCTAGTGCAG” was 3200 fluorescence intensity (a.u.); that for “CTCCGCGTCTAGCCGCGGGTGACGTCAGCACCACCACCATCGGAGTCACCTAGTGCAG” was 17500 fluorescence intensity (a.u.).
On to “GAAACCCTGTCACAAGCCGATGTGCACCATGTAAAGCCACCGGAGTCACCTAGTGCAG”, for which the binding signal was 11300 fluorescence intensity (a.u.).
As to “GATTTGTGATGATTATTCGTGATTTGCGATAAATGGTCCCCGGAGTCACCTAGTGCAG”, the binding signal is 3380 fluorescence intensity (a.u.).
The figure for “AATGGCAACGATAACAATAGTGCGCATCACGATAGGGGAGCGGAGTCACCTAGTGCAG” is 33500 fluorescence intensity (a.u.).
Take “TTGTTCCATGTGTAGGTGACTCGATGTCTCGGGAGAGTATCGGAGTCACCTAGTGCAG”: the binding signal was 3230 fluorescence intensity (a.u.).
For the sequence “AAGTTGGGTTTCGGATCTTGGAAGGTTAGGAGATACAGTACGGAGTCACCTAGTGCAG”, the binding signal was 6930 fluorescence intensity (a.u.).
As to “AATGGAGTTGCGGCGGCCGACGTCAAATCGAGTGGCGTAGCGGAGTCACCTAGTGCAG”, the binding signal is 3370 fluorescence intensity (a.u.).
With “GAAGCATCTCCCCACCTGTCAGTGATAGTATCCGTGTCCTCGGAGTCACCTAGTGCAG”, the binding signal was 3560 fluorescence intensity (a.u.).
On to “GCTTTGGGCTATAATTGGGCCATTTGTCGTCAGCTCTTGGCGGAGTCACCTAGTGCAG”, for which the binding signal is 3230 fluorescence intensity (a.u.).
The value for “GTCGGAGATCATCGTCAGCGGTCAGCCTGCTGGCGCCGTGCGGAGTCACCTAGTGCAG” was 3970 fluorescence intensity (a.u.).

The values above are taken from PMC7819943, “Rice protein-binding microarrays: a tool to detect cis-acting elements near promoter regions in rice”.
